{"source": "patent US20060193821", "key": {"[1]": {"test_system": "IL-23 (human, p19/p40 heterodimer) (Homo sapiens)", "test": "filter binding", "conditions": "purified recombinant protein, protein details: R&D Systems, carrier free; for binding result: <parent clone"}, "[2]": {"test_system": "IL-23 (human, p19/p40 heterodimer) (Homo sapiens)", "test": "activity in cells", "conditions": "2'-OMe C,U and many purines; multiple PS; 3'-idT [2'-OMe C2,C6,U10,U13,U14,U21,C23,C27,U32,U34 and many purines (positions not stated); PS 2-3,6-7,11-12,14-15,17-18,18-19,19-20,21-22 (N = PS linkage, left out); 3'-inverted dT 35]; Pathscan pSTAT3; purified recombinant protein; protein details: R&D Systems, carrier free; letters built from the parent sequence and the stated change; variant of ARC979"}, "[3]": {"test_system": "IL-23 (mouse, p19/p40 heterodimer) (Mus musculus)", "test": "activity in cells", "conditions": "2'-F C,U; TransAM STAT3, multiple experiment average; purified recombinant protein; protein details: isolated in-house"}}, "note": "For some of these results: The comparison behind a weaker result is the experiment's own reference, which may not be listed here. For some of these results: The exact form of at least one protein or probe is not confirmed. For some of these results: Whether high values mean tight binding is not given here for every scale."}
{"sequence": "ACAGGCAAGUAAUUGGGGAGUGCGGGCGGGGUGU [ARC1591]", "values": [{"measurement": "binding signal", "setting": "[1]; deoxy A,G, 2'-OMe C,U, dI at G4, 3'-idT [dI at 4 (parent G), 2'-OMe C,U at 2,6,10,13,14,21,23,27,32,34, deoxy A,G elsewhere, 3'-inverted dT at 35], 100 nM …, no Kd given, letters built from the parent sequence and the stated change, variant of ARC979", "result": 54.8, "unit": "% bound"}]}
{"sequence": "ACAGGCAAGUAAUUGGGGAGUGCGGGCGGGGUGU [ARC1756]", "values": [{"measurement": "IC50", "setting": "[2]", "result": 19, "unit": "nM"}]}
{"sequence": "ACAGGCAAGUAAUUGGGGAGUGCGGGCGGUGU [ARC1118]", "values": [{"measurement": "binding result", "setting": "[1]; deoxy A,G, 2'-OMe C,U", "result": "binds more weakly"}]}
{"sequence": "GGAGCGCACUCAGCCACUCUACUCGAUAUAGUUUAUCGAGCCGGUGGUAGAUUAUGAUUUCGACCUCUCUGCUAGC [ARC1630]", "values": [{"measurement": "IC50", "setting": "[3]", "result": 16.6, "unit": "nM"}]}
{"sequence": "GGAGUUACUCAGCGUCCGUAAGGGAUAUGCUCCGACUCC [A10.min3]", "values": [{"measurement": "binding signal", "setting": "[1]; 2'-F C,U, 100 nM IL-23", "result": "1.6 +/- ratio"}]}
{"sequence": "GGAUCAUACACAAGAAGUGCUUCAUGCGGCAAACUGCAUGACGUCGAAUAGAUCC [B10.min2]", "values": [{"measurement": "binding signal", "setting": "[1]; 2'-F C,U, 100 nM IL-23", "result": "1.6 +/- ratio"}]}
{"sequence": "GGCAAGUAAUUGGGGAGUGCGGGCGG [ARC1117]", "values": [{"measurement": "binding result", "setting": "[1]; deoxy A,G, 2'-OMe C,U", "result": "binds more weakly"}]}
{"sequence": "GGCGGUACGGGGAGAGUGGGCUGGGGUC [ARC1129]", "values": [{"measurement": "binding result", "setting": "[1]; deoxy A,G, 2'-OMe C,U", "result": "binds more weakly"}]}
{"sequence": "GGCGGUACGGGGAGUGUGGGCUGGGCC [ARC1124]", "values": [{"measurement": "binding result", "setting": "[1]; deoxy A,G, 2'-OMe C,U", "result": "binds more weakly"}]}
{"sequence": "GGCGGUACGGGGAGUGUGGGCUGGGGCC [ARC1120]", "values": [{"measurement": "binding result", "setting": "[1]; deoxy A,G, 2'-OMe C,U", "result": "binds more weakly"}]}
{"sequence": "GGCGGUACGGGGAGUGUGGGUUGGGCC [ARC1123]", "values": [{"measurement": "binding result", "setting": "[1]; deoxy A,G, 2'-OMe C,U", "result": "binds more weakly"}]}
{"sequence": "GGCGGUACGGGGAGUGUGGGUUGGGGCC [ARC1119]", "values": [{"measurement": "binding result", "setting": "[1]; deoxy A,G, 2'-OMe C,U", "result": "binds more weakly"}]}
{"sequence": "GGCGGUACGGGGGGAGUGGGCUGGGGUC [ARC1127]", "values": [{"measurement": "binding result", "setting": "[1]; deoxy A,G, 2'-OMe C,U", "result": "binds more weakly"}]}
{"sequence": "GGCGGUACGGGGGGAGUGGGCUGGGUC [ARC1128]", "values": [{"measurement": "binding result", "setting": "[1]; deoxy A,G, 2'-OMe C,U", "result": "binds more weakly"}]}
{"sequence": "GGCGGUCCGCAUUGAUGUCAGUUAUGCGUAGCUCCGCC [C10.2]", "values": [{"measurement": "binding signal", "setting": "[1]; 2'-F C,U, 100 nM IL-23, variant of AMX84-C10", "result": "1.5 +/- ratio"}]}
{"sequence": "GGUACGGGGAGAGUGGGCUGGG [ARC1132]", "values": [{"measurement": "binding result", "setting": "[1]; deoxy A,G, 2'-OMe C,U", "result": "binds more weakly"}]}
{"sequence": "GGUACGGGGAGUGUGGGCUGG [ARC1126]", "values": [{"measurement": "binding result", "setting": "[1]; deoxy A,G, 2'-OMe C,U", "result": "binds more weakly"}]}
{"sequence": "GGUACGGGGAGUGUGGGCUGGG [ARC1122]", "values": [{"measurement": "binding result", "setting": "[1]; deoxy A,G, 2'-OMe C,U", "result": "binds more weakly"}]}
{"sequence": "GGUACGGGGAGUGUGGGUUGG [ARC1125]", "values": [{"measurement": "binding result", "setting": "[1]; deoxy A,G, 2'-OMe C,U", "result": "binds more weakly"}]}
{"sequence": "GGUACGGGGAGUGUGGGUUGGG [ARC1121]", "values": [{"measurement": "binding result", "setting": "[1]; deoxy A,G, 2'-OMe C,U", "result": "binds more weakly"}]}
{"sequence": "GGUACGGGGGGAGUGGGCUGG [ARC1131]", "values": [{"measurement": "binding result", "setting": "[1]; deoxy A,G, 2'-OMe C,U", "result": "binds more weakly"}]}
{"sequence": "GGUACGGGGGGAGUGGGCUGGG [ARC1130]", "values": [{"measurement": "binding result", "setting": "[1]; deoxy A,G, 2'-OMe C,U", "result": "binds more weakly"}]}
